The assay deals with Ishikawa. The assay is described as follows: Inhibition of estradiol-induced proliferation in human Ishikawa cells after 72 hrs by Cell-titer-Glo assay. The class given is functional, cell-based.

Values after ≈ are worked out from the molar mass of the structure shown.

In general, IC50 refers to the concentration needed to halve the response being measured. Read a high IC50 as weaker potency in that assay.

Molecule `CC/C(=C(\c1ccccc1)c1ccc(OCCN(C)C)cc1)c1ccccc1` [TAMOXIFEN] registered an IC50 of 7.87 µg/mL (≈ 21.2 µM).

These data come from ChEMBL document CHEMBL4177560, “Functional evaluation of synthetic flavonoids and chalcones for potential antiviral and anticancer properties” (Bioorg Med Chem Lett, 2017).
